# Measurements published in PMC7819943, “Rice protein-binding microarrays: a tool to detect cis-acting elements near promoter regions in rice”.
# Sequences of proteins named here, by UniProt entry; tags and fusion partners are left off.
# UniProt Q0JBA9, entry or part of it: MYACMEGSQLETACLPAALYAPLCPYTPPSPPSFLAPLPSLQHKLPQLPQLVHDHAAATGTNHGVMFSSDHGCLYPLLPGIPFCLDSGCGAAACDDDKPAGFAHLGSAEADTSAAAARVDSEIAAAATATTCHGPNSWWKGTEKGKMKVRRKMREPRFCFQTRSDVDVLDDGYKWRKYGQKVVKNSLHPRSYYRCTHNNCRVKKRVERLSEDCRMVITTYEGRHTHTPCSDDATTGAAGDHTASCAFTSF
# This is one part of the list.
# Biological target: OsWRKY34 (Oryza sativa, UniProt Q0JBA9 1-250)
# Assay: protein-binding microarray (RPBM); PBS, 2% BSA, 51.3 ng/ul salmon testes DNA, 50 uM zinc acetate, 200 nM TF, 25 C, 1 h; high values mean tight binding
# Conditions: protein: recombinant; tags: N-terminal polyhistidine and DsRed monomer fusion (pET32a); label: CyDye5-dUTP incorporated in the synthesized complementary strand; 3' TTTTT single-stranded linker to array surface; dsDNA, one strand shown
# Outline: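 Binding signal is reported as fluorescence intensity per feature (arbitrary units) from an Axon 4000B scanner. Incubation used 200 nM of each Ni–NTA-purified, N-terminally polyhistidine- and DsRed-fused transcription factor from E. coli BL21-CodonPlus on a double-stranded custom Agilent array for 1 h at 25 °C, with 50 µM zinc acetate in the buffer, followed by washing.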
row,Sequence,binding signal
1,GTTTGGTCATTGACTTCAGCAGGTCTTCTCTCTTTGTCTCCGGAGTCACCTAGTGCAG,9670 fluorescence intensity (a.u.)
2,CACCTACAACCGTATTATCTCATATTTCACATGATCTCCTCGGAGTCACCTAGTGCAG,8540 fluorescence intensity (a.u.)
3,AACGTCTCCACCAAGCTTTGTCGATCACCTCCATGCTTTCCGGAGTCACCTAGTGCAG,10200 fluorescence intensity (a.u.)
4,TATTTTGTAATCATTTGTTTTATATTTGAATTCCTGTCAGCGGAGTCACCTAGTGCAG,8590 fluorescence intensity (a.u.)
5,AATCCTTAAAATCATTCAAACCTTTTGTTCACCCACGTTTCGGAGTCACCTAGTGCAG,8760 fluorescence intensity (a.u.)
6,GGTTTCCGTGTCCAACGTTTGACTGTCCGTCTTATATGAACGGAGTCACCTAGTGCAG,8590 fluorescence intensity (a.u.)
7,TGCTCAACATCCATCTTTCTTTCTTTCTTTTTCTCTTTTTCGGAGTCACCTAGTGCAG,11300 fluorescence intensity (a.u.)
8,AAGATTTTTAGTGCATCATCAAACAGTATCGTCTCTAGAACGGAGTCACCTAGTGCAG,8350 fluorescence intensity (a.u.)
9,GTCACCTCTTCTAATATTTCTTATTTTTTAATTCCGAATTCGGAGTCACCTAGTGCAG,10200 fluorescence intensity (a.u.)
10,GATTAATATGTCTCTTCCGCACTACATCCCCACCCACATTCGGAGTCACCTAGTGCAG,10700 fluorescence intensity (a.u.)
11,CCCGTACTACTTATCACATCAGTTCATCTTATCCTCAATTCGGAGTCACCTAGTGCAG,10900 fluorescence intensity (a.u.)
12,CTTCTCTCACCGGCTCTCCGCCATCTTCTCGTCCTGTATGCGGAGTCACCTAGTGCAG,15400 fluorescence intensity (a.u.)
13,TCGCCGGGCTTCTCTACGAGTACCTCGTCATCCCGTCCACCGGAGTCACCTAGTGCAG,8870 fluorescence intensity (a.u.)
14,GTATCTTCTGTATCTGTAGTTTTTCTCTGCAGTTCAGTTTCGGAGTCACCTAGTGCAG,8650 fluorescence intensity (a.u.)
15,GCGCACTTATTTCCGCCGTTAATCTCTCCGCCCAAAGTTACGGAGTCACCTAGTGCAG,9340 fluorescence intensity (a.u.)
16,CCGCGACGACCGACCGACCGGGTCCGACCGCACCACCTCGCGGAGTCACCTAGTGCAG,8960 fluorescence intensity (a.u.)
17,ATTTTTGACGCCGTTGACTTTTTTTAAATATGTTTGACCGCGGAGTCACCTAGTGCAG,46900 fluorescence intensity (a.u.)
18,CCATAAGTCGTCTCTCAGTGTGCAGCAGCAATCCACCATCCGGAGTCACCTAGTGCAG,8530 fluorescence intensity (a.u.)
19,TATCTTTGTCACACTCTACTACTACTAGTCTACTAGCACTCGGAGTCACCTAGTGCAG,8320 fluorescence intensity (a.u.)
20,CCGCCGCCGCCTCACCACCAGCCGAAGTCCACCGCCCACGCGGAGTCACCTAGTGCAG,8940 fluorescence intensity (a.u.)
21,ATAAGTTTCATGTTATTTTTGGCATCTTTACTTTCTACAACGGAGTCACCTAGTGCAG,8960 fluorescence intensity (a.u.)
22,AGATTTTGCACAGTTTTATGCTCCAACACGGCAAGTTTCCCGGAGTCACCTAGTGCAG,8400 fluorescence intensity (a.u.)
23,TACTTGCACCACCTTCTTCTTCTTCTCTCTCCCTCACACGCGGAGTCACCTAGTGCAG,8740 fluorescence intensity (a.u.)
24,ATTATGGACGTCTTAATATTGTCTTCCCGGGCTGGATCACCGGAGTCACCTAGTGCAG,11000 fluorescence intensity (a.u.)
25,CCTCTTCCTCTTTTTACTACTCCATCGAGGCATTCAGCGACGGAGTCACCTAGTGCAG,9000 fluorescence intensity (a.u.)
26,AACACATTTGAGCAAATTCATCCCTCCTACCTCAAATACTCGGAGTCACCTAGTGCAG,9260 fluorescence intensity (a.u.)
27,TCCCGTCTCGGCTCCTTGCGCCATCGTCGACAGGGGAGGGCGGAGTCACCTAGTGCAG,9340 fluorescence intensity (a.u.)

row,Sequence,binding signal
1,AGAGAGAGAGGCGTCCATTTCCAGGTGTTTTCAGCTCTGACGGAGTCACCTAGTGCAG,8650 fluorescence intensity (a.u.)
2,TCACGTGGCCACTCCTCCTCCTCCGCCTCCGCGTTTGTGACGGAGTCACCTAGTGCAG,8690 fluorescence intensity (a.u.)
3,GTATGTGGGTGGTGGTATTTTTTTTATCCTGGTTACGACCCGGAGTCACCTAGTGCAG,19700 fluorescence intensity (a.u.)
4,ACGCACAGTGTGACAAGCTCTCGCCATCCAAGAATCCCTCCGGAGTCACCTAGTGCAG,8770 fluorescence intensity (a.u.)
5,GCGCGCCGCCTCGTTGCTTTTCTCCTGTTTTTTTTTTTTTCGGAGTCACCTAGTGCAG,9840 fluorescence intensity (a.u.)
6,CAACCCTCATATATCCCGTGATCCATTGTTCAGACCTGCCCGGAGTCACCTAGTGCAG,8810 fluorescence intensity (a.u.)
7,GGCCATCTGGTTTCCACTTCTCTTACCACCTCAATTCCGCCGGAGTCACCTAGTGCAG,10500 fluorescence intensity (a.u.)
8,ACATTAGCATGTTCTCCAGCATACAGTACAGGATCCTCTACGGAGTCACCTAGTGCAG,8730 fluorescence intensity (a.u.)
9,GTGAGCTCCGCCTCGATCGATTCCACACCAACCTATTCATCGGAGTCACCTAGTGCAG,8160 fluorescence intensity (a.u.)
10,TGTTGGTTTGACCGATCGTATCGGGGTTGGGCGATATACCCGGAGTCACCTAGTGCAG,8260 fluorescence intensity (a.u.)
11,GCCACCTCGCCCTGTTCACCGTGCCCGCCAACAACCTCCCCGGAGTCACCTAGTGCAG,11000 fluorescence intensity (a.u.)
12,TTTCCGGACTGTTTTCATCCCTATCTACTACTGCTCGAGCCGGAGTCACCTAGTGCAG,8770 fluorescence intensity (a.u.)
13,ACTATTTTTCTCTGGTTTCTTTCCTTGATGCGTCTCCTTCCGGAGTCACCTAGTGCAG,8450 fluorescence intensity (a.u.)
14,ACTAGCACCCCGACTTTTTTTTTTCTTTCCTTCGCTTCTTCGGAGTCACCTAGTGCAG,8170 fluorescence intensity (a.u.)
15,AATACGAAAGTGAACCTGTCCTTATATTTTCTAGTAGTATCGGAGTCACCTAGTGCAG,8350 fluorescence intensity (a.u.)
16,CCCAGGTCTCTACGGCCACAACGTAGAATTCTCACCACTACGGAGTCACCTAGTGCAG,8400 fluorescence intensity (a.u.)
17,CATCCGTATGATTCGACTTTTTTTTCACGTTGATTTTATACGGAGTCACCTAGTGCAG,9050 fluorescence intensity (a.u.)
18,CACAGCCTGACGGTATCACTCACGCACACCAACTGCTCGCCGGAGTCACCTAGTGCAG,10600 fluorescence intensity (a.u.)
19,CTCTACTGCAAACTGTTGTTCCTGCTTGCTCTAACACATTCGGAGTCACCTAGTGCAG,9120 fluorescence intensity (a.u.)
20,AGTCAAACTACACCTTTTCCTTTCGTGGCTGATTCCCCTACGGAGTCACCTAGTGCAG,8620 fluorescence intensity (a.u.)
21,AATTAAATATAGCAGGAGGAGCATGGAGGCATAGGCTTTACGGAGTCACCTAGTGCAG,9150 fluorescence intensity (a.u.)
22,CAAAGTTTGTTTCATGCACATTTTTTCTCATGTTAAATTACGGAGTCACCTAGTGCAG,8590 fluorescence intensity (a.u.)
23,AGTTGTGGTGGGGTAGTGAGCAATAACATTTTTCATAATTCGGAGTCACCTAGTGCAG,12000 fluorescence intensity (a.u.)
24,CGGCCTCGAATTTCGTCTCCTCGCCCACCGCTTGCGCCGACGGAGTCACCTAGTGCAG,10300 fluorescence intensity (a.u.)
25,CGCCACCGTCACCGACCGCGCGCGCACGCACGCACACTCCCGGAGTCACCTAGTGCAG,10500 fluorescence intensity (a.u.)
26,CTGGGGCTTCTTGCTTCTTGCTCGCTCGCTGCTGTTTTACCGGAGTCACCTAGTGCAG,14800 fluorescence intensity (a.u.)
27,GGAAGCCGAATGGGGAGGGGTAGTACAGTCATTTCATAATCGGAGTCACCTAGTGCAG,13000 fluorescence intensity (a.u.)
